This is one part of the list.
Assays:
Assay in all cases: log2 fold change, soluble protein after heating vs DMSO (PISA); higher = thermal stabilisation; K562 cells, 10 uM, 30 min; active = over 0.2 and 3.5 SD of the protein, either way, in both replicates (recomputed)
[1] = compound: CN1CCN(CCOc2cc(OC3CCOCC3)c3c(Nc4c(Cl)ccc5c4OCO5)ncnc3c2)CC1 [saracatinib]
In short: (§1)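 Thermal stability values are relative to control samples and come from duplicates. They are expressed as log2 fold changes. For measurement, K562 cells (2×10^6 cells/mL) received 10 μM compound for 30 min, and aliquots were heated for 3 min over 48°C-58°C, pooled, and extracted at 4°C in PBS with 0.5% NP-40. Soluble protein, the supernatant after 21,000xg for 90 min, was quantified by TMTpro 16plex LC-MS/MS with equalised channel sums.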

Amino acid sequences for entries named in this document (tags omitted). A change or cut given only in a name is not applied to a line headed by its entry.
UniProt Q99988: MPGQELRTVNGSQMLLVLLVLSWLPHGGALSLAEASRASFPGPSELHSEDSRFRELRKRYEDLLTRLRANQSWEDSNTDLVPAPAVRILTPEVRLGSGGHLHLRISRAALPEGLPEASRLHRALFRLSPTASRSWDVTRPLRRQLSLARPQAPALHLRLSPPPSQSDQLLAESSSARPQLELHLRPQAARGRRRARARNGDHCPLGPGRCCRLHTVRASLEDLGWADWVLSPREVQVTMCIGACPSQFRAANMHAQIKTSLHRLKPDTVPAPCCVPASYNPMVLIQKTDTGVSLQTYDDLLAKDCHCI
UniProt Q9UJ14: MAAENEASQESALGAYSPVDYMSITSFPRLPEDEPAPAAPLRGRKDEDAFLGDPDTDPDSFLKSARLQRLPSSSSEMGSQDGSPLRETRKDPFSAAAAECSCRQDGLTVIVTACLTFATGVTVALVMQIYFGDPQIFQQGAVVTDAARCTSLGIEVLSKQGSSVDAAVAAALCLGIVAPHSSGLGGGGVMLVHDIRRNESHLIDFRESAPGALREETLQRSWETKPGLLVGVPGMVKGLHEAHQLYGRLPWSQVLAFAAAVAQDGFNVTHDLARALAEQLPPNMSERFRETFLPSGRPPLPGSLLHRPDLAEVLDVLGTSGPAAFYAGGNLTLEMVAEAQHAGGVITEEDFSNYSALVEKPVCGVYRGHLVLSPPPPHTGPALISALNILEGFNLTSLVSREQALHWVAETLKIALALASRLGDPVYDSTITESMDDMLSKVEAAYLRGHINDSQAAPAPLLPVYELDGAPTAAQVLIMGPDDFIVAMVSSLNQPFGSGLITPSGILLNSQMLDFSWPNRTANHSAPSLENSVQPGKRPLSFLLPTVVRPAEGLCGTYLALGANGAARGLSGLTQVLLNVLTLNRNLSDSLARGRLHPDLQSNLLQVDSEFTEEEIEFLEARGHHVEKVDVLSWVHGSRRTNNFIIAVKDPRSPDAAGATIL
UniProt P01275: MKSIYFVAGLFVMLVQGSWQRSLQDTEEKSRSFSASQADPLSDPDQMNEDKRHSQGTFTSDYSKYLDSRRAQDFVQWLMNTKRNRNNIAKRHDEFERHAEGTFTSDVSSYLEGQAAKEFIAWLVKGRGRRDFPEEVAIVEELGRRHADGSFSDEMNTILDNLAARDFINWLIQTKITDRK
UniProt Q06547, whole entry, looked up: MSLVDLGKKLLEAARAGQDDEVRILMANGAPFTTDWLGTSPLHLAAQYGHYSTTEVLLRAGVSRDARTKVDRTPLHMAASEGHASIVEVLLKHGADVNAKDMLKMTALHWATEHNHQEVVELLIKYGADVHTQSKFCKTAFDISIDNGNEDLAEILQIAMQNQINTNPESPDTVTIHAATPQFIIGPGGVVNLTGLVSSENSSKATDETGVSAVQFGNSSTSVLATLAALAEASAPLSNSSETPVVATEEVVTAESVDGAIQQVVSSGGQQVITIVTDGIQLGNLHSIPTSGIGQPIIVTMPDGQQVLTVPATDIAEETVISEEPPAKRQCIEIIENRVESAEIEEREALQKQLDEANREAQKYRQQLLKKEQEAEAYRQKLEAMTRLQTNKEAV
UniProt Q14393: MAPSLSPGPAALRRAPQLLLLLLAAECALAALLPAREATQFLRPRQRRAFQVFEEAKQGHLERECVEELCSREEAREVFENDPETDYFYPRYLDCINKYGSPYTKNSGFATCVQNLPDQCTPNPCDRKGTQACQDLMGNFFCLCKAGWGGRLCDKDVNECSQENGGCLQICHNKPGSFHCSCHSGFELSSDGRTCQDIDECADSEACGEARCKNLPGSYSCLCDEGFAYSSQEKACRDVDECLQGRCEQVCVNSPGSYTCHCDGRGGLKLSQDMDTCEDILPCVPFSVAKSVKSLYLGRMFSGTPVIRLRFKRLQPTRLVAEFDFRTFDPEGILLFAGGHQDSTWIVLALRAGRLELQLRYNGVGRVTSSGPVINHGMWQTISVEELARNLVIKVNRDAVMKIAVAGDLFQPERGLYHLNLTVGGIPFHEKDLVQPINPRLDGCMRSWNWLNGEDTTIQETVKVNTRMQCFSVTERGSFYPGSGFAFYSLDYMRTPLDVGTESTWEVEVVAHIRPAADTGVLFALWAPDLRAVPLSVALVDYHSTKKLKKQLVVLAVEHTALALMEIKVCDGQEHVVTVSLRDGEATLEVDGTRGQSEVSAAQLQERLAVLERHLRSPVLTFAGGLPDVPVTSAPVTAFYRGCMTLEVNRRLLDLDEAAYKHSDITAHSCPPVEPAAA
UniProt P04406: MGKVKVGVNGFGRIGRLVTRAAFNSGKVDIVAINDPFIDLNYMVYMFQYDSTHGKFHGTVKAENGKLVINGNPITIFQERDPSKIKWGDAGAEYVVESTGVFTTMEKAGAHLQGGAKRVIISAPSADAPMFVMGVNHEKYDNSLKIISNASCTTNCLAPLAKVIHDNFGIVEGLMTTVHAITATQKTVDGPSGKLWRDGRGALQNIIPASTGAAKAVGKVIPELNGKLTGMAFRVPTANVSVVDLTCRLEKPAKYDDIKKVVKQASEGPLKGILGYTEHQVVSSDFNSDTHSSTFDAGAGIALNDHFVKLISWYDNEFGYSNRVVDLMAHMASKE
UniProt Q9BVM4: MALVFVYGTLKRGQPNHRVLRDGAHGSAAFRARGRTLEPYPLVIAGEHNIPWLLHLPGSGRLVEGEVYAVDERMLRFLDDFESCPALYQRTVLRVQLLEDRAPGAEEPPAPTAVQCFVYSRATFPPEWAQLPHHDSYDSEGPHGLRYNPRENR
UniProt Q9BUM1: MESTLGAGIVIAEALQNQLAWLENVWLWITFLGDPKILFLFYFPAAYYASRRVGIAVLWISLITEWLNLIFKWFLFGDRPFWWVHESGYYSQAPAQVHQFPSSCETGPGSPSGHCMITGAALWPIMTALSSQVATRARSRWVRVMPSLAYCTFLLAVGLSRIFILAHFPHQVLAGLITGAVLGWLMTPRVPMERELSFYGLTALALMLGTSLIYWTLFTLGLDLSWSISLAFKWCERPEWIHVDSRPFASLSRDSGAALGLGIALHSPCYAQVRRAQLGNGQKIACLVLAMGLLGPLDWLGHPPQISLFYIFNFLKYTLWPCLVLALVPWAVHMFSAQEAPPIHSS
UniProt Q969S9: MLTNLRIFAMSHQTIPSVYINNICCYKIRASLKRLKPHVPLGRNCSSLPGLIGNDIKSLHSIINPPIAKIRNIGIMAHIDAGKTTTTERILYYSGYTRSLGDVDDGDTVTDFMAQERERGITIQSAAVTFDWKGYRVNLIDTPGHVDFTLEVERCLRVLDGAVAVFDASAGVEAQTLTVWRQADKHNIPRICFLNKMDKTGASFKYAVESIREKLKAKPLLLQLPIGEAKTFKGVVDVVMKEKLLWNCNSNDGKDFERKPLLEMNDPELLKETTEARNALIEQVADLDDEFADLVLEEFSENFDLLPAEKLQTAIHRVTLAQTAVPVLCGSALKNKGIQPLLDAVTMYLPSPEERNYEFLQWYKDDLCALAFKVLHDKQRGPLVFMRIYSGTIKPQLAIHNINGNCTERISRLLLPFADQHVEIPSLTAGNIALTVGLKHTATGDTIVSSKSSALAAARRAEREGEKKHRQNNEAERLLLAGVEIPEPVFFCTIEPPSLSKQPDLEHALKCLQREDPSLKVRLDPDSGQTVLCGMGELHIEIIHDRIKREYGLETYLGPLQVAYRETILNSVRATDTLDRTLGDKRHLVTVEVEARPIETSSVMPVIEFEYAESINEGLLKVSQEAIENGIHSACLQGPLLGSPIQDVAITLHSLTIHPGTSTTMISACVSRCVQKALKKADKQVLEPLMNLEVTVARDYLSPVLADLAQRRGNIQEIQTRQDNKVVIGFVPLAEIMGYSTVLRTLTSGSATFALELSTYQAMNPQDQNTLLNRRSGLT
UniProt Q9UET6: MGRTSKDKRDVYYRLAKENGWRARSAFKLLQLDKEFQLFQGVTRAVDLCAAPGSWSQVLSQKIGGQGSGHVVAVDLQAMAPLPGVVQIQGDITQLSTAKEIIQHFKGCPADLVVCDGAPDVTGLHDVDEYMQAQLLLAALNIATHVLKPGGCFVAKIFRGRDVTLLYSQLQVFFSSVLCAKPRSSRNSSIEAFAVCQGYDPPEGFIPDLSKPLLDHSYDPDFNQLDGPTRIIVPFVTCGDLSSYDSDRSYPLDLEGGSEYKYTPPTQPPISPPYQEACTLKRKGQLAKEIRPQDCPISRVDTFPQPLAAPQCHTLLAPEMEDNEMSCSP
UniProt Q96CN9: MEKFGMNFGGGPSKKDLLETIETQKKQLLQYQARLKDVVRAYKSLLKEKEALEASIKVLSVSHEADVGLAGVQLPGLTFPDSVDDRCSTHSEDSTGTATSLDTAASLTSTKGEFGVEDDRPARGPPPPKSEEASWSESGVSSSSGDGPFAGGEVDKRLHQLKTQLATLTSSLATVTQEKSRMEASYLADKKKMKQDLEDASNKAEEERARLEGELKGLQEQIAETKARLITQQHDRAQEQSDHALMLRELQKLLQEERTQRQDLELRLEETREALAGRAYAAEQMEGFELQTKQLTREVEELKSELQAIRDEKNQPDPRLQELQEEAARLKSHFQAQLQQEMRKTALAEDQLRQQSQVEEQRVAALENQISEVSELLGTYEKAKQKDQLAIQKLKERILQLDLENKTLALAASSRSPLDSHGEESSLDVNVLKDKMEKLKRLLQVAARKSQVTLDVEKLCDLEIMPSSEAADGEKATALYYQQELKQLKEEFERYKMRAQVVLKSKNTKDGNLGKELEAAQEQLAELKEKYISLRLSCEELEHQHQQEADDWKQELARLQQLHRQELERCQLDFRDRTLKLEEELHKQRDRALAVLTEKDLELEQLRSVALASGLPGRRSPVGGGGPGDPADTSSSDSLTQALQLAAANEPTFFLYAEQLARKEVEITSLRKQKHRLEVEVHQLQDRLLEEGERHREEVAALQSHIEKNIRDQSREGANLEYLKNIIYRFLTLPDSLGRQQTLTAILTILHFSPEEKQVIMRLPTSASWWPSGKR
UniProt Q14697: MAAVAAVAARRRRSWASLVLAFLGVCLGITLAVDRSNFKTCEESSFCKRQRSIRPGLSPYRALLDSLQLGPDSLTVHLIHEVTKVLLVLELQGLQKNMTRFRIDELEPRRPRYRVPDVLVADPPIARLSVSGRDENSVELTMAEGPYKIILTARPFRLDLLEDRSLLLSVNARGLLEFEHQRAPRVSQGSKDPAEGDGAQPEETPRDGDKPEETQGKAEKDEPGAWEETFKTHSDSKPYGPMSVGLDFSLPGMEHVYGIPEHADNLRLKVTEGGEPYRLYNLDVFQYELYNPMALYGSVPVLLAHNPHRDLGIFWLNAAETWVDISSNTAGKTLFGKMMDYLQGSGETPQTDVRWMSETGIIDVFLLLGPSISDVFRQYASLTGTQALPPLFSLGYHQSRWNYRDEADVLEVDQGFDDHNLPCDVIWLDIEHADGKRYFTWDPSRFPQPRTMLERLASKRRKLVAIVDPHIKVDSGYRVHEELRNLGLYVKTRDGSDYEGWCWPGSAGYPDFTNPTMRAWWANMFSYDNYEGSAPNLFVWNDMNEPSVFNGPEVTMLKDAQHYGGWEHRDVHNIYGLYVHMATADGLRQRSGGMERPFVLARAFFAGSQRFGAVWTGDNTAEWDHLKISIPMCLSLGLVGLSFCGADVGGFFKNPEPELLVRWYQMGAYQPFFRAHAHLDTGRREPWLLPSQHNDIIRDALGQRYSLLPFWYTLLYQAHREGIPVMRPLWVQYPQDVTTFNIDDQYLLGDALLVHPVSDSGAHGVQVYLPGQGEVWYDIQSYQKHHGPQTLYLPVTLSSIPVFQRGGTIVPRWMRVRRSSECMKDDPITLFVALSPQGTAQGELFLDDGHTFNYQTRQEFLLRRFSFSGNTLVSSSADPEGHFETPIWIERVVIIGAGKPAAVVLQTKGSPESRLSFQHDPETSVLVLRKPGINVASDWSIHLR
UniProt Q9BZ67: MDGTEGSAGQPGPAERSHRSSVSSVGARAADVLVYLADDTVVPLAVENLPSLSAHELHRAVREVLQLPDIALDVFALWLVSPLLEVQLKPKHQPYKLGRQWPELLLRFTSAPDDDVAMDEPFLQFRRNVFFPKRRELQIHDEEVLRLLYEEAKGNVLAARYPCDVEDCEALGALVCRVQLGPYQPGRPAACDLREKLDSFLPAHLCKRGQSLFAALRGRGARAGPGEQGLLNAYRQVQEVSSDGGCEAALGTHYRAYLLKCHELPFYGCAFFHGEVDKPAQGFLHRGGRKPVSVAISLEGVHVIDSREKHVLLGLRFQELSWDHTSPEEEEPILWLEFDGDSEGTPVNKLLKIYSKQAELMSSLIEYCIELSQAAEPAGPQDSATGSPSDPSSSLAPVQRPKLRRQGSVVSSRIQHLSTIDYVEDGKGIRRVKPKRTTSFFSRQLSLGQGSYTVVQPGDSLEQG
UniProt Q9NWZ8: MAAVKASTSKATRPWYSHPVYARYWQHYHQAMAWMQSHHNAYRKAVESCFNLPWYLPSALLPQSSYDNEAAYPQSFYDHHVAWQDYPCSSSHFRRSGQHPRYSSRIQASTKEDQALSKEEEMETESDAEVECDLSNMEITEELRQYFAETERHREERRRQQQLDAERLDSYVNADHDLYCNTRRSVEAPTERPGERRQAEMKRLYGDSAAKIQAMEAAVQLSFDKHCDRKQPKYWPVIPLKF

[2] = compound: CN1CCN(c2nc(C3=C(c4c[nH]c5ccccc45)C(=O)NC3=O)c3ccccc3n2)CC1 [sotrastaurin]
In short: as §1

[3] = compound: CN1CCc2c(c3ccccc3n2Cc2ccc(C(=O)NO)cc2)C1 [Tubastatin A]
In short: as §1

[4] = compound: CNC(=O)C1=CC=CC=C1NC2=NC(=NC=C2Cl)NC3=C(C=C(C=C3)N4CCOCC4)OC
In short: as §1

[5] = compound: CNC(=O)c1ccc(Nc2ncc(C(F)(F)F)c(NCc3nccnc3N(C)S(C)(=O)=O)n2)cc1 [defactinib]
In short: as §1

[6] = compound: CNCc1ccc(-c2[nH]c3cc(F)cc4c3c2CCNC4=O)cc1 [rucaparib]
In short: as §1

[7] = compound: CNc1nc(-c2ccc3c(N)n[nH]c3c2)cc(N2C[C@@H](C(=O)NC3CCCCC3)CC[C@H]2C)n1
In short: as §1

[8] = compound: COC(=O)N[C@@H](C)CNc1nccc(-c2cn(C(C)C)nc2-c2cc(Cl)cc(NS(C)(=O)=O)c2F)n1 [encorafenib]
In short: as §1

[9] = compound: COC(=O)[C@H](CCSC)NC(=O)C1=C(C=C(C=C1)NC[C@H](CS)N)C2=CC=CC=C2
In short: as §1

[10] = compound: CN1CC[C@H](c2c(O)cc(O)c3c(=O)cc(-c4ccccc4Cl)oc23)[C@H](O)C1 [alvocidib]
In short: as §1

Measured: log2 fold change

GBF1 (UniProt Q92538)
inactive: [1] -0.055 | [2] -0.103 | [3] 0.034 | [4] -0.024 | [5] -0.031 | [6] 0.044 | [7] 0.059 | [8] 0.104 | [9] -0.015

GDF15 (UniProt Q99988)
inactive: [1] -0.139 | [10] 0.054 | [3] 0.398 | [5] -0.097 | [6] 0.165 | [7] -0.022 | [8] 0.144 | [9] 0.007

GCFC2 isoform 3 (UniProt P16383)
inactive: [1] -0.31 | [3] -0.279 | [4] -0.008 | [5] 0.018 | [7] 0.015 | [9] 0.007

GGT1 (UniProt P19440)
inactive: [1] 0.008 | [2] 0.025 | [3] -0.165 | [4] -0.105 | [7] 0.137

GGT7 (UniProt Q9UJ14)
inactive: [1] 0.066 | [2] 0.051 | [3] 0.053 | [4] -0.042 | [5] -0.027 | [6] -0.038 | [7] -0.091 | [8] 0 | [9] -0.011

GABPA (UniProt Q06546)
inactive: [1] -0.065 | [2] -0.086 | [3] 0.087 | [4] -0.063 | [5] -0.064 | [6] -0.015 | [7] 0.018 | [8] 0.019 | [9] 0.011

GBE1 (UniProt Q04446)
inactive: [1] -0.252 | [3] 0.055 | [4] -0.027 | [5] -0.195 | [6] -0.132 | [7] 0.076 | [8] 0.062 | [9] -0.034

Three records drawn at random from the list so far:
GCFC2 isoform 3 (UniProt P16383)
inactive: [1] -0.31 | [3] -0.279 | [4] -0.008 | [5] 0.018 | [7] 0.015 | [9] 0.007

GBE1 (UniProt Q04446)
inactive: [1] -0.252 | [3] 0.055 | [4] -0.027 | [5] -0.195 | [6] -0.132 | [7] 0.076 | [8] 0.062 | [9] -0.034

GGT7 (UniProt Q9UJ14)
inactive: [1] 0.066 | [2] 0.051 | [3] 0.053 | [4] -0.042 | [5] -0.027 | [6] -0.038 | [7] -0.091 | [8] 0 | [9] -0.011

Additional records follow:

GCG (UniProt P01275)
inactive: [1] 0.571 | [10] 1.82 | [7] -0.305

GABARAPL1 isoform 2 (UniProt Q9H0R8)
inactive: [1] -0.057 | [2] 0 | [3] 0.08 | [4] 0.023 | [5] -0.011 | [6] -0.079 | [7] -0.006 | [8] -0.004 | [9] -0.058

FYTTD1 (UniProt Q96QD9)
inactive: [10] 0.256 | [3] 0.008 | [6] -0.044 | [8] 0.197

GABPB1 (UniProt Q06547)
inactive: [2] -0.175 | [3] 0.419 | [4] -0.116 | [5] -0.177 | [9] 0.105

GFOD1 (UniProt Q9NXC2)
inactive: [4] 0.065

GAS6 isoform 1 (UniProt Q14393)
inactive: [2] -0.104 | [4] 0.067 | [6] -0.073 | [8] -0.026

GAA (UniProt P10253)
inactive: [2] -0.021 | [3] 0.141 | [4] -0.329 | [5] -0.158 | [6] 0.018 | [8] 0.005 | [9] -0.07

FRY (UniProt Q5TBA9)
inactive: [2] -0.061 | [3] 0.176 | [4] -0.249 | [5] -0.043 | [6] 0.049 | [8] 0.286 | [9] -0.038

FZD1 (UniProt Q9UP38)
inactive: [2] 0.108 | [10] -0.186 | [4] -0.264 | [5] -0.223 | [9] 0.088

GAPDH isoform 2 (UniProt P04406)
inactive: [4] 0.035

GDPD5 (UniProt Q8WTR4)
inactive: [6] 0.009 | [8] 0.114

GGACT (UniProt Q9BVM4)
inactive: [6] 0.084 | [8] -0.318

GATAD2B (UniProt Q8WXI9)
inactive: [2] -0.099 | [3] 0.001 | [4] -0.015 | [5] -0.07 | [6] 0.125 | [8] -0.217 | [9] 0.012

G6PC3 (UniProt Q9BUM1)
inactive: [4] -0.003 | [5] -0.177 | [6] -0.069 | [8] 0.101 | [9] -0.021

GAL (UniProt P22466)
inactive: [4] 0.118 | [5] -0.201 | [9] 0.04

GFM2 (UniProt Q969S9)
inactive: [6] 0.468 | [8] 0.217

FZD5 (UniProt Q13467)
inactive: [2] 0.173 | [3] -0.026 | [4] -0.127

GFAP isoform 2 (UniProt P14136)
inactive: [6] 0.068 | [8] -0.064

FTSJ1 isoform 2 (UniProt Q9UET6)
inactive: [2] -0.12 | [4] -0.046

GCC1 (UniProt Q96CN9)
inactive: [4] 0.017

GDPD3 (UniProt Q7L5L3)
inactive: [4] 0.251 | [5] -0.074 | [9] -0.132

FRMPD3 (UniProt Q5JV73)
inactive: [10] 0.152 | [3] -0.15 | [4] 0.052 | [5] 0.003 | [6] 0.036 | [8] 0.058 | [9] 0.09

GANAB (UniProt Q14697)
inactive: [3] -0.109 | [6] -0.334 | [8] 0.151

GEMIN7 (UniProt Q9H840)
inactive: [4] 0.14

GALNT7 (UniProt H0YAH3)
inactive: [10] 0.011 | [5] -0.166 | [6] -0.325 | [8] 0.049 | [9] 0.158

GAGE1 (UniProt Q13065)
inactive: [6] 0.095 | [8] -0.316

GDI2 (UniProt Q5SX86)
inactive: [4] 0.199

GARS1 (UniProt H7C443)
inactive: [2] 0.137 | [10] 0.082 | [3] 0.059 | [4] -0.07 | [5] 0.03 | [6] 0.004 | [8] -0.139 | [9] 0.076

FRYL isoform 2 (UniProt O94915)
inactive: [10] 0.121 | [5] 0.064 | [9] -0.146

FUT4 (UniProt P22083)
inactive: [3] 0.227

GALNT3 (UniProt Q14435)
inactive: [3] 0.092 | [4] -0.053

FRMD8 (UniProt Q9BZ67)
inactive: [10] 0.114 | [3] -0.028 | [6] 0.079 | [8] 0.174

FOXJ2 (UniProt Q9P0K8)
inactive: [10] -0.047 | [5] -0.333 | [9] -0.075

GEMIN8 (UniProt Q9NWZ8)
inactive: [10] 0 | [3] -0.125 | [4] -0.041 | [5] 0.001 | [6] 0.204 | [8] -0.171 | [9] 0.079

FUOM (UniProt A2VDF0)
inactive: [2] 0.135 | [10] -0.092 | [3] 0.011 | [5] 0.065 | [6] -0.01 | [8] -0.156 | [9] 0.066

From the supplement of paper PMC10849652
